The list shows a part of the results.
System: T1, CTL2-GFP (C. trachomatis L2/434/Bu, GFP-expressing)
T1 construct: L2/434/Bu, GFP-expressing
Design: species or system HeLa; Intracellular C. trachomatis growth in HeLa cells, bulk GFP fluorescence relative to DMSO
Conditions: bulk GFP, single well; 28.5 h, 10 µM; inhibitor

Going from CCN(CC)C(=O)CCn1c(-c2cccnc2C)cc2cccnc21 [CBK282147] to Cc1ccc(OCCSc2nc3ccccc3n2CC(=O)O)c(C(C)C)c1 [CBK300483], the “% of control remaining” value rises from 121.637% to 146.944%.

First: Clc1ccc(Nc2nnc(-c3[nH]ncc3NCc3ccncc3)o2)cc1 [CBK288588]
Second: Cc1cc(Cl)ccc1OCC(=O)NC(=S)Nc1cccc(-c2nc3ccccc3s2)c1 [CBK264802]
The “% of control remaining” value of the first is lower: 119.176% for the first, 132.497% for the second.

Going from Cc1nc(C)n(CC(=O)N2CCc3sccc3C2c2ccco2)n1 (centres unmarked) [CBK281649] to Cc1csc2c(C3CCN(C(=O)c4ccncc4)CC3)nc(C)n12 [CBK285243], the “% of control remaining” value falls from 128.767% to 120.601%.

Going from Cc1ccc(-c2cncc(N(C)CCN(C)C)n2)cc1C [CBK065990] to CN(C)CCN(Cc1ccncc1)Cc1cc(F)cc(F)c1 [CBK283096], the “% of control remaining” value falls from 209.046% to 127.744%.

First: COc1ccc(-c2cccc(Nc3cc(OC)c(OC)c(OC)c3)n2)cc1OC [CBK037634]
Second: COc1ccc([C@@]23CC[C@@H](NC(=O)Nc4ccnc5ccccc45)C[C@@H]2N(C)CC3)cc1OC [CBK045699]
The “% of control remaining” value of the first is lower: 108.192% for the first, 122.317% for the second.

Compared with Cc1n[nH]c(=O)c2noc(C)c12 [CBK000857], Cc1cc(C)n2nc(S(N)(=O)=O)c(C#N)c2n1 [CBK025767] is lower in “% of control remaining” value: 143.349% for the first, 121.515% for the second.

First: CN(C)S(=O)(=O)c1c(Cl)cccc1Cl [CBK091643]
Second: O=C(CN(c1cccc(Cl)c1)S(=O)(=O)c1ccc(Cl)cc1)NCc1ccco1 [CBK265356]
The “% of control remaining” value of the first is higher: 137.735% for the first, 113.7% for the second.

First: Cc1ccc(OCC(=O)NC(=S)Nc2cc(C(=O)O)ccc2C)cc1C [CBK264955]
Second: CCOC(=O)c1ccc(NC(=S)NC(=O)c2ccc(C)c(C)c2)cc1 [CBK264004]
The “% of control remaining” value of the first is higher: 124.128% for the first, 100% for the second.

Going from Cc1nc(C(F)(F)F)ccc1NC(=O)CSCC(=O)O [CBK056975] to COC(=O)Cc1c(O)nn(C)c1Cc1cccc(C(F)(F)F)c1 [CBK006608], the “% of control remaining” value falls from 151.903% to 105.733%.

First: Cc1cc(=O)oc(-c2ccccc2)c1C#N [CBK004842]
Second: Cc1ccc(C(=O)NC(Cc2cccs2)c2ccccn2)c(=O)[nH]1 (centres unmarked) [CBK285210]
The “% of control remaining” value of the first is lower: 99.8807% for the first, 123.655% for the second.

Compared with CCc1cccc2c(C=C3C(=O)N(CC(=O)O)C(=O)c4ccccc43)c[nH]c12 [CBK295153], O=C(O)C(Cc1c[nH]c2ccccc12)N1Cc2ccccc2C1=O (centres unmarked) [CBK287056] is lower in “% of control remaining” value: 168.592% for the first, 136.64% for the second.

First: COc1cccc2c3c([nH]c12)C1(CCCN(C/C=C\c2ccccc2)C1)NCC3 (centres unmarked) [CBK040138]
Second: COc1ccccc1C1CCCN1Cc1c(C)nc2ccccn12 (centres unmarked) [CBK281995]
The “% of control remaining” value of the first is lower: 89.7267% for the first, 118.191% for the second.

First: CC(C)(C)C(=O)N1CCC(c2nnc3n2CCCCC3)CC1 [CBK285311]
Second: CN1CCC(C(=O)NC(=O)NC2CCCCC2)CC1 [CBK034825]
The “% of control remaining” value of the first is higher: 144.025% for the first, 105.327% for the second.

Going from CN(C)CCN(Cc1cc2cc3c(cc2[nH]c1=O)OCO3)C(=S)Nc1ccc(F)cc1 [CBK135186] to COc1cc(OC)cc(C(=O)N2CCC3(CC2)CC(=O)c2ccc(OCCN(C)C)cc2O3)c1 [CBK169008T], the “% of control remaining” value falls from 126.653% to 89.2694%.

Going from O=C(Nc1ccc(OCc2ccccc2)cc1)OCC1CN(Cc2ccccc2)CCO1 (centres unmarked) [CBK074792] to O=C(NCCCOc1ccccc1)N1CCN(S(=O)(=O)c2ccc(C(F)(F)F)cc2)CC1 [CBK296686], the “% of control remaining” value rises from 106.679% to 114.09%.

Compared with CC(=O)c1ccc(-c2cc(N3CCN(C(=O)c4ccco4)CC3)ncn2)s1 [CBK036999], CC1(C)COC(=O)N1C1CCN(C(=O)c2ccno2)CC1 [CBK044383] is higher in “% of control remaining” value: 113.959% for the first, 124.263% for the second.

Compared with Cc1c(S(=O)(=O)NC(C)CCCC(C)(C)O)sc2ccc(Cl)cc12 (centres unmarked) [CBK062467], CCC(CN1CCCC1)NC(=O)Cc1ccc(OC)c(C)c1 (centres unmarked) [CBK282752] is lower in “% of control remaining” value: 130.264% for the first, 79.0096% for the second.

First: COc1ccc(CN2C(=O)CC3(C2=O)C(=O)N(Cc2ccccc2)c2ccc(F)cc23)cc1OC (centres unmarked) [CBK075174]
Second: COc1cc(/C=N/NC(=O)CC#N)ccc1OCc1ccccc1Cl [CBK263932]
The “% of control remaining” value of the first is lower: 99.3063% for the first, 120.991% for the second.

First: O=C(NC(=O)C1CCNCC1)Nc1ccc(F)cc1F [CBK034793]
Second: O=C(CSc1nnc(-c2ccccc2)n1C1CCCCC1)Nc1ccc(Cl)cc1Cl [CBK267424]
The “% of control remaining” value of the first is lower: 86.0126% for the first, 162.673% for the second.

Going from O=C(O)CCC(C(=O)O)N1C(=O)/C(=C\C(Cl)=C/c2ccc([N+](=O)[O-])cc2)SC1=S (centres unmarked) [CBK261011] to Cn1nnc2cc(C(=O)N(CCO)c3ccccc3)ccc21 [CBK266522], the “% of control remaining” value rises from 115.938% to 150.746%.

Compared with CC(=O)NCCSc1cncc(NC(C)C)n1 [CBK105291], CSCCCN1CCn2nc(CNc3cnccn3)cc2C1 [CBK307136] is higher in “% of control remaining” value: 125.601% for the first, 150.945% for the second.

Compared with CC(=O)NCCN(Cc1ccc(S(=O)(=O)N2CCOC2=O)cc1)Cc1ccoc1 [CBK024460], CN1CCN(CCCNC(=O)N2CCN(c3ccc(F)cc3)CC2)CC1 [CBK156386] is higher in “% of control remaining” value: 93.8769% for the first, 115.254% for the second.

First: Cc1cc(C)n(CCCC(=O)N2CCc3ncc(Cl)cc3C2)n1 [CBK284852]
Second: Cc1cc(C)n(CC2CCCN2C(=O)CCCc2ccccn2)n1 (centres unmarked) [CBK305920]
The “% of control remaining” value of the first is lower: 83.6532% for the first, 104.153% for the second.

Going from Cc1ncsc1C(=O)N1CCCC(c2cc3cnccc3[nH]2)C1 (centres unmarked) [CBK283461] to CCCN1CCC(NC(=O)Cn2c(C3CC3)nc3ccccc32)CC1 [CBK304917], the “% of control remaining” value falls from 131.924% to 128.972%.

Compared with CC(C)C(=O)NC(NC(=S)Nc1sc2c(c1C(N)=O)CCCC2)C(Cl)(Cl)Cl (centres unmarked) [CBK261050], CC(C)(C)c1csc(NC(=O)C2CC(=O)N(C3CCCC3)C2)n1 (centres unmarked) [CBK175544] is lower in “% of control remaining” value: 99.2705% for the first, 92.5578% for the second.
